This assay can be described thus: qHTS Assay for Lipid Storage Modulators in Drosophila S3 Cells.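 On cell number change: cells counted by Cell Tracker Red CMTPX staining in the red channel.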 The note with it: BODIPY lipid droplet fluorescence, 18-24 h; for cell number change: measured here: cell count max response, cells fed with added oleic acid. Summed up: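 Laser-scanning cytometry quantifies lipid droplet accumulation (500–530 nm total intensity; droplet/cell object ratio) in oleic acid-fed (400 uM added) Drosophila S3 cells treated with a concentration series. 20 uM Triacsin C defined 100% inhibition.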
A general note: Quantitative high-throughput screening tests each substance at several concentrations.

Setting [1] is: measured here: lipid fluorescence (Fed channel) AC50, cells fed with added oleic acid.
The mark [2] stands for this setting: measured here: cell number channel AC50, cells fed with added oleic acid.

This is one part of the list. These are further read-outs of the screen, such as a control signal, another cell line or another target. No call is given for them. Most of these compounds were active or inconclusive in the main read-out, so they are no random draw. The note in brackets gives the kind of curve behind each potency; many fits are weak.

For orientation: AC50 means the concentration giving half of the maximal activity seen.

As for `COc1ccccc1N(CC(=O)NC1CCCC1)C(=O)CNC(=O)c1cccs1`, the cell number change is -24.8%. In addition, the AC50 under setting [1] is 206 nM [falling, full curve, poor fit].

With `N#Cc1c(NC(=O)CSc2nnc(-c3ccncc3)n2CC2CCCO2)sc2c1CCCC2` (centres undefined), the cell number change was determined as 50.9%. Further, the AC50 under setting [2] is 580 nM [rising, full curve]. The half-maximal activity concentration (AC50) under setting [1] is 4110 nM [rising, single point]. On to `COc1ccc(-c2cn(CCO)c(-c3ccc(Cl)nc3)n2)cc1`, for which the cell number change was 18.7%. Further, the half-maximal activity concentration (AC50) under setting [1] was 6510 nM [rising, partial curve]. For the compound `O=C1CCN(S(=O)(=O)c2ccc(Cl)cc2)CC1`, the cell number change came to 3.23%. With `O=C(NCC1CCCO1)c1ccc(COc2ccc(Br)cc2)cc1` (centres undefined), the cell number change came to 6.66%. Moreover, the AC50 under setting [2] was 920 nM [rising, full curve, poor fit].

Consider `O=C(/C=N\O)NCCCNCc1ccccc1`, for which the cell number change was -0.13%. The AC50 under setting [1] is 3660 nM [rising, partial curve, poor fit]. On to `O=C(NCc1ccc(F)cc1)C1CCN(S(=O)(=O)c2ccc(Br)s2)CC1`, for which the cell number change is -12.7%. Under setting [1], the AC50 was 2310 nM [rising, partial curve]. As for `COc1ccc(NC(=O)CN(C)C(=O)c2ccc(=O)[nH]c2)cc1`, the cell number change is 13.7%. For the same compound, the AC50 under setting [1] is 1460 nM [falling, partial curve, poor fit]. Consider `Cc1ccc2nc(-c3ccc(-c4ccccn4)s3)cn2c1`, for which the cell number change came out at 0.774%. Moreover, under setting [2], the AC50 was 326 nM [rising, full curve, poor fit]. `CCn1cc(-c2cc(C(=O)O)on2)c(C)n1`: the cell number change was -0.294%. Further, the AC50 under setting [2] is 6510 nM [falling, single point]. In addition, under setting [1], the AC50 is 6510 nM [falling, single point]. In the case of `CC(CC(=O)O)n1nnc2ccccc21` (centres undefined), the cell number change was -26.6%. Also, under setting [2], the AC50 was 65.1 nM [falling, full curve, poor fit]. In addition, the AC50 under setting [1] was 130 nM [falling, full curve, poor fit]. Consider `C/C=C/C(=O)OCC(=O)Nc1cc(OC)c([N+](=O)[O-])cc1C`, for which the cell number change came out at 32.2%. For the same compound, the AC50 under setting [2] was 29100 nM [rising, single point]. In the case of `Cn1c(SCC(N)=O)nnc1C1CCN(C(=O)NC2CCCCC2)CC1`, the cell number change stood at 4.42%. Further, the AC50 under setting [1] is 517 nM [falling, full curve]. For the compound `O=C(N/N=C(\c1ccccc1)c1cccnc1)C(O)(c1ccccc1)c1ccccc1`, the cell number change came out at 8.91%. Consider `CC1CN(S(=O)(=O)c2cccc(C(=O)OCC(=O)NCc3ccccc3)c2)CC(C)O1` (centres undefined), for which the cell number change was 20.2%. In addition, the AC50 under setting [1] is 41.1 nM [rising, full curve, poor fit].

As for `COc1ccc(Nc2nnc(SCC(=O)NC(=O)Nc3ccc4c(c3)OCCO4)s2)cc1`, the cell number change came to 85.5%. Also, the AC50 under setting [2] is 29100 nM [rising, partial curve]. Regarding `Cc1cc(OC(=O)c2ccccc2[N+](=O)[O-])c([N+](=O)[O-])c(=O)[nH]1`, the cell number change is 31.4%. Besides, the AC50 under setting [2] is 36600 nM [rising, partial curve, poor fit].

In the case of `COC(=O)c1c(C)[nH]c(C(=O)C(C)OC(=O)C2CC2)c1C` (centres undefined), the cell number change is -4.15%. Also, the AC50 under setting [1] was 4.61 nM [rising, full curve, poor fit]. In the case of `Cc1cccc(NC(=O)c2ccc(S(=O)(=O)N3CCOCC3)cc2)n1`, the cell number change was -22%. Moreover, the half-maximal activity concentration (AC50) under setting [1] is 731 nM [rising, single point].

Consider `CN1CCC(NC(=O)c2cccc(Oc3ccccc3)c2)CC1`, for which the cell number change came to 7.46%. Consider `CC(=O)c1ccc(NCC(=O)N2CCN(c3ccccc3)CC2)cc1`, for which the AC50 under setting [2] is 6510 nM [falling, single point].

Take `CCCn1nnnc1SCC(=O)NNC(=O)c1ccco1`: the cell number change is -9.33%. Besides, under setting [1], the AC50 was 116 nM [falling, full curve]. In the case of `CN(c1ccc(OCC(=O)OCC(=O)NC2CCCC2)cc1)S(=O)(=O)c1ccc2ccccc2c1`, the cell number change was -40.3%. Besides, the AC50 under setting [2] is 23100 nM [falling, single point]. Besides, the AC50 under setting [1] was 29100 nM [falling, single point]. Regarding `CCC(C)C(NC(=O)C1CCC(=O)N1C(=O)OCc1ccccc1)C(=O)NC(C(=O)N1CCCC1C(N)=O)C(C)CC` (centres undefined), the cell number change was -2.86%. As for `COc1ccc(S(=O)(=O)N(C)CC(=O)N2CCCCCC2)cc1OC`, the AC50 under setting [1] is 130 nM [falling, full curve, poor fit].

For the compound `CC1CCCC(NC(=O)c2ccncc2)C1C` (centres undefined), the cell number change was 1.57%. The AC50 under setting [1] is 18400 nM [falling, single point]. Consider `Oc1ccc2ccccc2c1C=NCc1ccccc1`, for which the cell number change is -22.6%. The AC50 under setting [1] was 29100 nM [falling, single point].

On to `CCN(CC)C1=NC=CC(c2ccccc2)=CC1C` (centres undefined), for which the cell number change is -35%. Besides, under setting [2], the AC50 is 58 nM [falling, full curve, poor fit]. Moreover, under setting [1], the AC50 is 16400 nM [falling, partial curve, poor fit]. With `COc1ccc(NC(=O)c2cc3ccc4c5ccccc5[nH]c4c3cc2O)cc1`, the cell number change is 15.6%. For the same compound, under setting [1], the AC50 was 29100 nM [falling, single point]. For the compound `O=C(NC(NC(=S)Nc1ccccc1C(=O)O)C(Cl)(Cl)Cl)c1ccccc1` (centres undefined), the cell number change is -21.3%. For the same compound, the AC50 under setting [1] is 5170 nM [falling, partial curve]. As for `Cc1nc(NC(=O)c2ccc(OCC(C)C)cc2)sc1Cc1ccc2c(c1)OCO2`, the cell number change stood at 7.69%. Further, the AC50 under setting [1] was 29100 nM [rising, single point].

As to `CN1CCN(S(=O)(=O)c2cccc(C(=O)Nc3sc4c(c3-c3nc5ccccc5[nH]3)CCCC4)c2)CC1`, the cell number change is -9.8%. The AC50 under setting [1] is 2060 nM [rising, partial curve, poor fit].

`CCSc1nnc2c(Cl)cc(Cl)cn12`: the cell number change was -13%.

Regarding `C=CCNC(=O)c1cccc(NS(=O)(=O)c2ccc(Cl)cc2)c1`, the cell number change was -13.6%. The AC50 under setting [1] was 651 nM [falling, full curve, poor fit]. As for `O=C(O)/C=C/C(=O)Nc1ccc(Cc2ccc(NC(=O)/C=C/C(=O)O)cc2)cc1`, the cell number change was determined as 0.845%. Besides, the AC50 under setting [1] was 6510 nM [falling, single point].

As for `O=C(NNC(=O)c1ccccc1O)c1ccc(Cl)c(S(=O)(=O)N2CCc3ccccc32)c1`, the cell number change is -15%. For the same compound, the AC50 under setting [1] was 29100 nM [falling, single point]. `C[C@H](NC(=O)N1CCn2c1nc1ccccc12)C(=O)NCC1CCCO1` (some centres undefined): the cell number change was -10.6%. Besides, under setting [1], the AC50 was 820 nM [rising, single point]. For the compound `CC1(C)Cc2c(cnn2-c2cccc(F)c2)C(NC(=O)c2ccc[n+]([O-])c2)C1` (centres undefined), the cell number change was -16.5%. Under setting [1], the AC50 is 103 nM [falling, full curve, poor fit].
